Results reported in the supplement of paper PMC8497498.
± gives the standard deviation of the averaged measurements. Some of the results follow. The data scatter; read single values as rough.

What was measured:
Conditions in all cases: 10 µM
[1] = test system: Plasmodium vivax liver stage (primary human hepatocyte culture); experiment: hypnozoite quantity inhibition (% inhibition); higher = more active against hypnozoites
[2] = test system: Plasmodium vivax liver stage (primary human hepatocyte culture); experiment: schizont net growth area inhibition (% inhibition); higher = more active against liver schizonts
[3] = test system: primary human hepatocytes; experiment: hepatic nuclei reduction relative to DMSO (100 - % of negative control); higher = more toxic to hepatocytes
[4] = assay mode: Prophylactic (treated before or shortly after infection), fixed day 6 post-infection
[5] = assay mode: Radical Cure (treated from day 5 post-infection for 3 days), fixed day 8 post-infection

Structure (SMILES) | hypnozoite quantity inhibition [1, 4] | hypnozoite quantity inhibition [1, 5] | schizont net growth area inhibition [2, 4] | schizont net growth area inhibition [2, 5] | hepatic nuclei reduction [3, 4] [%] | hepatic nuclei reduction [3, 5] [%]
Cc1cc(NC(=O)c2ccc(Oc3ccc(Cl)cc3O)o2)no1 | 46 | -25 | -11.6 | -100 | 2 | -6
COc1ccc(Nc2nc(NCc3ccccc3)c3ccccc3n2)cc1 | 20.2 | 72.8 | 50.1 | 17.5 | 0 | 14
O=C(NCCc1ccn(-c2ccccc2)n1)C1CCCCC1 | 12 | 4 | -5.5 | 30.6 | -9 | -4
Cc1ccc2[nH]c(C3CCCNC3)c(-c3ccncc3)c2c1 (configuration not stated) | 5 | -23 | 52.6 | -104 | -3 | -5
Cc1ccc(NC(=O)CC2COc3ccccc3O2)cc1Cl (configuration not stated) | -16 | -36 | 22.9 | -66.4 | -7 | -5
COc1ccc(C=C2SC(Nc3ccc(F)cc3)=NC2=O)c(OC)c1 | -2.8 |  | -31.3 | -12 | -11 | -12
c1ccc(-c2[nH]c3ccccc3c2C(c2ccccn2)N2CCCC2)cc1 (configuration not stated) | 31 | 3 | 15.5 | -41.9 | -2 | 0
COc1ccc(-c2nonc2NC(=O)c2cccc(Cl)c2)cc1OC | -12.5 | 63.4 | 30.1 | 15.6 | -7 | 14
O=c1nc(C=Cc2ccc(Cl)cc2)oc2ccccc12 | -28.1 | -3.1 | 9.9 | 35.7 | -6 | -3
COc1ccc(-c2cnc3ccc(N4CCCC4)nn23)cc1OC | -11 | -10 | 106 | 103 | -15 | -2
Cc1ccc(CSCc2ccc(C(=O)NC3CC3)o2)cc1 | 5.7 | 29.2 | -14.3 | -20.7 | 2 | 1
N=C(N)Nc1ccc(-c2ccc(-c3ccc(NC(=N)N)cc3Cl)o2)c(Cl)c1 | 10 | 11 | -37.3 | 24.1 | -13 | -25
NC(=O)c1cc(Br)ccc1OCCOc1ccccc1 | 42 | -12 | 28.4 | -91.2 | -5 | -11
CN1CCN(c2nc(Nc3ccc(O)cc3)nc3ccccc23)CC1 | -7.6 | 21 | 3.9 | -152 | -2 | -10
O=C(NCCc1c[nH]c2ccccc12)c1cc2ccccc2oc1=O | 17 | -4 | 19.6 | -84.4 | -6 | 2
CC(=O)N(O)CCCCCNC(=O)CCC(=O)N(O)CCCCCNC(=O)CCC(=O)N(O)CCCCCN | -48 | 4.4 ± 26 | 98.7 | 2.1 ± 47 | -4 | -8 ± 9.9
CC1(CN2CCC(n3c(O)nc4ccccc43)CC2)OCc2ccccc2-n2cccc21 (configuration not stated) | 12 | 42 | -48.1 | -63.3 | 0 | 8
c1ccc2c(c1)CN(CC1CC1)CC1(CCN(Cc3c[nH]c4cnccc34)CC1)O2 | -13 | -20 | -4.3 | 57.6 | -4 | 0
COc1ccc(Br)cc1C1Nc2ccc3ccccc3c2C2=C1C(=O)CC(c1ccccc1)C2 (configuration not stated) | -51.9 | -0.8 | -36.9 | 35.9 | -9 | -7
Nc1ccc(-c2nc3cc(Oc4ccc(Oc5ccc6[nH]c(-c7ccc(N)cc7)nc6c5)cc4)ccc3[nH]2)cc1 | -25.8 | 38.2 | -38.6 | -19 | -9 | -3
O=C(Nc1cccnc1)c1c(O)c2cccc3c2n(c1=O)CC3 | -19 | 29 | -68.1 | -47.8 | 2 | 1
CCOC(=O)C1=C(C)N=c2sc(=Cc3ccccc3O)c(=O)n2C1c1ccc(OC)c2ccccc12 (configuration not stated) | -172 | 47.3 | -147 | 1.2 | -15 | 5
NCCCC(N)(C(=O)O)C(F)F (configuration not stated) | 41 | 11 | 5.1 | 16.2 | -3 | -5
CC(Oc1cccc(Cl)c1)C(=O)Nc1ccc2oc(-c3ccncc3)nc2c1 (configuration not stated) | -27 | -23 | 18.1 | -25.2 | 1 | 3
CCOc1cc2c(cc1OCC)C(c1cc(OC)c(O)cc1Cl)NCC2 (configuration not stated) | -40.7 | -0.8 | 22.6 | -62.7 | -12 | -8
COc1ccc(C=C2SC(Nc3ccccc3)=NC2=O)cc1 | -1.3 | 51.9 | -21.4 | 1.8 | -17 | 2
Fc1ccc2[nH]c3c(NCCCN4CCOCC4)ncnc3c2c1 | -14.7 | 24.4 | -13.3 | 11.5 | -4 | 9
Cc1ccc(Cl)cc1N1CCN(CCCNC(=O)C2CCN(c3nc4ccccc4[nH]3)CC2)CC1 | -24.6 | 42.8 | -15.1 | -2.4 | 15 | -5

Ordered by heavy-atom count (ascending): some entries from above.
Structure (SMILES) | hypnozoite quantity inhibition [1, 4] | hypnozoite quantity inhibition [1, 5] | schizont net growth area inhibition [2, 4] | schizont net growth area inhibition [2, 5] | hepatic nuclei reduction [3, 4] [%] | hepatic nuclei reduction [3, 5] [%]
Fc1ccc2[nH]c3c(NCCCN4CCOCC4)ncnc3c2c1 | -14.7 | 24.4 | -13.3 | 11.5 | -4 | 9
CCOc1cc2c(cc1OCC)C(c1cc(OC)c(O)cc1Cl)NCC2 (configuration not stated) | -40.7 | -0.8 | 22.6 | -62.7 | -12 | -8
CCOC(=O)C1=C(C)N=c2sc(=Cc3ccccc3O)c(=O)n2C1c1ccc(OC)c2ccccc12 (configuration not stated) | -172 | 47.3 | -147 | 1.2 | -15 | 5
